We go through two molecules from PMC8576121.

Sequences of proteins named here, by UniProt entry; tags and fusion partners are left off. A change or cut given only in a name is not applied to a line headed by its entry.
UniProt D4GZ79: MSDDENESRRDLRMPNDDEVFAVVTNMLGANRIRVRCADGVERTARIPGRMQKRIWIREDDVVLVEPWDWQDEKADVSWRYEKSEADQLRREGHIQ

Holding throughout (assay): affinity purification with mass spectrometry; N-His6 bait overproduced in H. volcanii; cytoplasmic extract on nickel chelating sepharose at room temperature in 2.1 M NaCl, 20 mM HEPES, 20 mM imidazole; four washes with 30 mM imidazole, elution with 700 mM imidazole; no RNase step, no cross-linking; co-isolated proteins identified by LC-MS/MS; three biological replicates; proteins found in the empty-vector or DHFR controls removed

The target of experiment [1] is T1, translation initiation factor aIF2 beta subunit (aIF2β-1) (Haloferax volcanii) (UniProt D4GZP2).
T1 sequence: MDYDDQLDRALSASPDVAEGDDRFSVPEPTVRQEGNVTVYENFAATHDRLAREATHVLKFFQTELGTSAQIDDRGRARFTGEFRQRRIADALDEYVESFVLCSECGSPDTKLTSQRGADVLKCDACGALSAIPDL

Experiment [2] deals with T2, translation initiation factor aIF2 beta subunit / probable RNA-binding protein (aIF2β-2) (Haloferax volcanii) (UniProt D4GVV8).
T2 sequence: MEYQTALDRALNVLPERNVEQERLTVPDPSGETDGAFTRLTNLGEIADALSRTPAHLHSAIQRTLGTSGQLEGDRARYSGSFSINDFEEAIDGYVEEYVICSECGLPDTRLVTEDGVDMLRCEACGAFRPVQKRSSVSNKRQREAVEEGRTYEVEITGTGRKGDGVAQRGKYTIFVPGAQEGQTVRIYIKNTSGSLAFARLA

For experiment [3], the target named is T3, translation initiation factor aIF2 gamma subunit (Haloferax volcanii) (UniProt D4GTD4).
T3 sequence: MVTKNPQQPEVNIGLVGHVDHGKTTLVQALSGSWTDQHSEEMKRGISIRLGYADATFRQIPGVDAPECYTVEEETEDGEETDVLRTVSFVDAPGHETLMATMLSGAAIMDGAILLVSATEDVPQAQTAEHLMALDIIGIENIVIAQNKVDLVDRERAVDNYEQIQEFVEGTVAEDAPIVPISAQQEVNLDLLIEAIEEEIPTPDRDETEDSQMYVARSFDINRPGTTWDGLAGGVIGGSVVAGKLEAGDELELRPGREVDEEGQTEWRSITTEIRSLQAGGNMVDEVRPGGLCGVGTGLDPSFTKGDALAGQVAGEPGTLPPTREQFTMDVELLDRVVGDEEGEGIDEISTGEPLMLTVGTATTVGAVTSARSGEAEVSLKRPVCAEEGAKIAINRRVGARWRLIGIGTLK

For experiment [4], the target named is T4, translation initiation factor aIF2 alpha subunit (Haloferax volcanii) (UniProt D4GT46).
T4 sequence: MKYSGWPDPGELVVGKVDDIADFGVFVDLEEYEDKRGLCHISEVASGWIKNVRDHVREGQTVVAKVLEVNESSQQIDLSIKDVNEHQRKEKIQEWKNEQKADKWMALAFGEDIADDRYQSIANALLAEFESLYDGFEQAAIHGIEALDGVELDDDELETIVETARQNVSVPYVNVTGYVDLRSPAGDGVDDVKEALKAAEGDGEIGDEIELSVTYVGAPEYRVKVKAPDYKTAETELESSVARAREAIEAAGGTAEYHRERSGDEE

Experiment [5] has as its target T5, eIF-2B domain protein (aIF2Bδ) (Haloferax volcanii) (UniProt D4GW08).
T5 sequence: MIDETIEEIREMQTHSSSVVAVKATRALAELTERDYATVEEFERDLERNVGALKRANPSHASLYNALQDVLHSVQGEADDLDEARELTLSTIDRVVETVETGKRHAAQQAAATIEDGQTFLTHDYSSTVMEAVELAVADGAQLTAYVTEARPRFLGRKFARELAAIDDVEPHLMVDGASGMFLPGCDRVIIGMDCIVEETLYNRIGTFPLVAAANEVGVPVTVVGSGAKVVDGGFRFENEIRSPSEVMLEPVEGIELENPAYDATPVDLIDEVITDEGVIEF

Experiment [6] deals with T6, DNA-directed RNA polymerase subunit Rpo2N (Haloferax volcanii) (UniProt D4GZX4).
T6 sequence: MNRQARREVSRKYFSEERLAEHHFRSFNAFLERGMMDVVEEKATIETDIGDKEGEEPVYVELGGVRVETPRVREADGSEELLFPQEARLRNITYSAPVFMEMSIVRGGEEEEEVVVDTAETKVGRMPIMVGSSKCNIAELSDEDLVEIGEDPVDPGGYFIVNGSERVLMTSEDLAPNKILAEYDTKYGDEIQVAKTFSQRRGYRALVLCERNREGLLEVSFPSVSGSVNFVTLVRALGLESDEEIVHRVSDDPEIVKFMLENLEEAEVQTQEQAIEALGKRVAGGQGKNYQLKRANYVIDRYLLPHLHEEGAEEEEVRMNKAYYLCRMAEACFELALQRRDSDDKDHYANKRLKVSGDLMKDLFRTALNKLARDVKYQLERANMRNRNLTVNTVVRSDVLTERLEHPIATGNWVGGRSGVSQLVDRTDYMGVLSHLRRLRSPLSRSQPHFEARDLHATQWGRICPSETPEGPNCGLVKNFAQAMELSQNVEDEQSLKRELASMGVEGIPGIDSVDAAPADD

These are yes or no findings as the source states them, for the method shown. In cells and extracts the contact can be indirect. These calls come from enrichment with a bait or labelling near it, and not all partners need be listed. For part of these data: A no says only that the protein was not detected with the bait.

Take “translation initiation factor aIF-1A (aIF1A1) (from UniProt D4GZ79)”: the binding entry in experiment [1], in experiment [2], in experiment [3] and in experiment [4] was “no binding” in each case.

B1: NUDIX family hydrolase/eIF-2B domain protein (protein, UniProt D4GTG3 1-413)
chain: MPHVATVFLRHDGRVLLTRRSDAVGTYQGRWAGVSGYVEGDPADAERDARRELAEEVGVRETDAELVRAGEPLTVTDEGREWTVHPFLFDARSRDIDTDEELAAVEWVHPTAIREREAVPGLWATYRRVAPAVETVADDETHGSTWISLRALEVLRDAAAEADSLEAVASVARRLRDARPNMAAVENRVNRVMAESDSDPESVRRRAEAAIDAAAEADDAAAARAAELIRERGVDRLATLSRSGTVLAALEAAEAAAVAVLVSESRPGGEGVGVAERLARDGRDVTLTTDAALPGLVAAGGADAVLLGADSVLASGGVVNKVGSLPAALAAARADVPVFAVCARDKVRGDDRFAGEDAGALYDGEAAIGTENPLFEVVPADSLSGVVTESGVLNAGDIGAVADEHAALAAWDD
B1: the binding entry is recorded as “no binding” in experiment [5] and “binds” in experiment [6].
